Source: publication PMC8699261, “Structural Characterization of Rat Galectin-5, an N-Tailed Monomeric Proto-Type-like Galectin” (Biomolecules, 2021)
No constants are given. Whether binding was seen depends on the method and setting. Some binding calls cover weakened binding; strength is not graded here.

Protein sequences, listed by entry. Tags and fused reporters are not part of them. Lines headed by an entry give the natural chain unless they say otherwise; changes in a name come on top. Chains listed by the source or under a name are the forms on record and can include a tag or linker.
chicken GRIFIN (A0A8V0ZCX7, form named): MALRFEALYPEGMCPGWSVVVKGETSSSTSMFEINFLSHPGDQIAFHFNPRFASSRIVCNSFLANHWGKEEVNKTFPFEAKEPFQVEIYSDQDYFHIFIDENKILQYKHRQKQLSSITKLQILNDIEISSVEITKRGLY

Target: chicken GRIFIN (chicken)
Experiment: crystal structure; cGRIFIN with the histo-blood-group B tetrasaccharide (1:2 molar ratio), crystals grown in 15% w/v PEG 400, 100 mM MES pH 6.5, 295 K; both purified

binding: binds
Substance: chicken GRIFIN (from UniProt A0A8V0ZCX7 1-139)
